Measurements published in paper PMC3021545, “Insulin Reduces Neuronal Excitability by Turning on GABAA Channels that Generate Tonic Current” (PLoS ONE, 2011).

Tested on: T1, insulin-induced high-affinity extrasynaptic GABAA channels (α5, γ2 containing; α5βγ2) of CA1 pyramidal neurons
T1 construct: gene Gabra5
Conditions: intact CA1 neurons of insulin-incubated slices; -Vp = 40 mV; pH 7.25; 20-22 °C; 200 µM saclofen in pipette; agonist; Hill coefficient 1.0±0.2; subunits not determined in the single-channel test

Structure (SMILES): NCCCC(=O)O [GABA]
- EC50: 0.017 ± 0.004 nM
